Assay results as given in patent US7816338B2, “Compositions and methods for inhibiting car gene expression by RNA interference” (Sumitomo Chemical Company, Limited, priority 2007, dated 2010).
At least one compound was matched to its structure with a doubt left.

Assays:
Type in all cases: cell-based
[1] = system: rat primary hepatocyte cultured cells; assay: Cell proliferation, BrdU uptake ELISA (Example 7); settings: PB and control siRNA (Cont) treatment
[2] = system: rat primary hepatocyte cultured cells; assay: Active oxygen production, Luminol chemiluminescence (Example 9); settings: PB and control siRNA (Cont) treatment; 72 hours after siRNA
[3] = system: rat primary hepatocyte cultured cells; assay: Cell apoptosis by TUNEL assay (Example 8); settings: PB and control siRNA (Cont) treatment; 72 hours after siRNA

## CCC1(c2ccccc2)C(=O)NC(=O)NC1=O [PB, Phenobarbital]
[1]
  uptake of BrdU as compared to the untreated cells: enhanced
[2]
  amount of active oxygen as compared to the untreated cells: increased
[3]
  amount of cell apoptosis as compared to the untreated cells: decreased
